Record: PubChem BioAssay AID1224830 (NIAID, 2016)

Purpose: 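Host factors that control LPS-induced TNF expression in human macrophages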 (primary screen)
Cell system: human THP-1 monocytic leukaemia cells, TNF dual-luciferase reporter clone, PMA-differentiated to macrophage-like cells
Knock-down reagent: siRNA pool against human genes, 50 nM
Timing: LPS for 4 h, given about 3 days after siRNA transfection
Treatment: bacterial LPS (TLR4 ligand), 10 ng/ml
Measured: 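TNF firefly reporter luminescence divided by renilla, normalised to the plate median, then turned into a robust z-score for each replicate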
Reading the numbers: TNF reporter robust z-score: higher = stronger TNF reporter response to LPS
Active means: 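Each well counts as active if its z-score is over 2.8 or under -1.5; controls are left without a call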
This is one part, drawn at random, of about 18,000 deposited reagents. Of all reagents, about 2,900 (16%) are marked active. 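Calls are made per well; low scores hint the gene aids the LPS response, high scores that it dampens it.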 Repeated entries: four replicate wells of each siRNA pool.

ZBTB14: TNF reporter robust z-score = 0.25; Call = inactive
ZBTB14: TNF reporter robust z-score = 0.64; Call = inactive
ZBTB14: TNF reporter robust z-score = 0.21; Call = inactive
ZBTB14: TNF reporter robust z-score = 0.55; Call = inactive
OR1C1: TNF reporter robust z-score = 2.23; Call = inactive
OR1C1: TNF reporter robust z-score = 1.42; Call = inactive
OR1C1: TNF reporter robust z-score = 1.36; Call = inactive
OR1C1: TNF reporter robust z-score = 0.99; Call = inactive
MT2A: TNF reporter robust z-score = -1.43; Call = inactive
MT2A: TNF reporter robust z-score = -0.82; Call = inactive
MT2A: TNF reporter robust z-score = -0.75; Call = inactive
MT2A: TNF reporter robust z-score = -1.16; Call = inactive
DNASE1L3: TNF reporter robust z-score = -1.06; Call = inactive
DNASE1L3: TNF reporter robust z-score = -1.22; Call = inactive
DNASE1L3: TNF reporter robust z-score = -0.76; Call = inactive
DNASE1L3: TNF reporter robust z-score = -0.91; Call = inactive
DIABLO: TNF reporter robust z-score = -0.66; Call = inactive
DIABLO: TNF reporter robust z-score = 0.06; Call = inactive
DIABLO: TNF reporter robust z-score = -1.27; Call = inactive
DIABLO: TNF reporter robust z-score = -0.81; Call = inactive
RO60: TNF reporter robust z-score = 0.63; Call = inactive
RO60: TNF reporter robust z-score = -0.02; Call = inactive
RO60: TNF reporter robust z-score = 0.15; Call = inactive
RO60: TNF reporter robust z-score = -0.04; Call = inactive
ZNF135: TNF reporter robust z-score = -1.09; Call = inactive
ZNF135: TNF reporter robust z-score = -0.94; Call = inactive
ZNF135: TNF reporter robust z-score = -0.22; Call = inactive
ZNF135: TNF reporter robust z-score = -0.05; Call = inactive
CCDC77: TNF reporter robust z-score = -1.03; Call = inactive
CCDC77: TNF reporter robust z-score = 0.16; Call = inactive
CCDC77: TNF reporter robust z-score = 0.06; Call = inactive
CCDC77: TNF reporter robust z-score = -0.45; Call = inactive
